Measured values taken from PubChem BioAssay (EPA / NIEHS).
Several values for one entry are separate records, joined by “and”; a condition that tells them apart may be missing. Equal entries are not always repeated. Inconclusive means that the source gave no clear call. Such entries were picked first, then a sample of the others. For some of these results: A potency beside an inconclusive call is a rough fit, not a confirmed value. A structure can be active in one record and inactive in another. Activity calls are given as the source filed them. How the source made its calls: active means hit-call score of the fitted dose curve at least 0.9, where 1 is the maximum; inconclusive means response in the unintended direction; inactive means score below 0.9.

By UniProt entry, the sequences of proteins in these tests, tags left out. Where a name states a change or a piece, a line headed by the entry shows the natural chain unless it says otherwise.
UniProt P19793: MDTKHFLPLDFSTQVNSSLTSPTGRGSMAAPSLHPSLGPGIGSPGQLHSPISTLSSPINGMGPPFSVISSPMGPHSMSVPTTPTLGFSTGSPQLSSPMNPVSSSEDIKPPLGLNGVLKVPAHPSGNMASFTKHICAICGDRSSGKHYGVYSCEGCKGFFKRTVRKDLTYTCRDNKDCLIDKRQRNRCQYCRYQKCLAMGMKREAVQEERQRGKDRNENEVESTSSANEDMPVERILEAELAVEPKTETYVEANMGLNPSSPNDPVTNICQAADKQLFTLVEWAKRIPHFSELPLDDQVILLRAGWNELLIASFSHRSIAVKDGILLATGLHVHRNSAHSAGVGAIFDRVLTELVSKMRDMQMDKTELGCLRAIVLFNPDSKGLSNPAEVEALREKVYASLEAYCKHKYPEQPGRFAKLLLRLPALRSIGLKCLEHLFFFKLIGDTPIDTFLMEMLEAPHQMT
UniProt P04637, whole entry, looked up: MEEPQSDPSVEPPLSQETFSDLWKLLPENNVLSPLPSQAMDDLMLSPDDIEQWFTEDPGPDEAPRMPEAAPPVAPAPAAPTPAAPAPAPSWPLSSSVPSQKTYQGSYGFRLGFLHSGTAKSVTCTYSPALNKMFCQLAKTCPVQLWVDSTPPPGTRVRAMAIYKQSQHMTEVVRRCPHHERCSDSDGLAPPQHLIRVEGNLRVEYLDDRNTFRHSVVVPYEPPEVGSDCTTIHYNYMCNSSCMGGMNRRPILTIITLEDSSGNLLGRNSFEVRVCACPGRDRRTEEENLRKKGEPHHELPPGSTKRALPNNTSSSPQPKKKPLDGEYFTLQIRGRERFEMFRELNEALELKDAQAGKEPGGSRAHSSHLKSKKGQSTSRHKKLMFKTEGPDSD
UniProt P37231: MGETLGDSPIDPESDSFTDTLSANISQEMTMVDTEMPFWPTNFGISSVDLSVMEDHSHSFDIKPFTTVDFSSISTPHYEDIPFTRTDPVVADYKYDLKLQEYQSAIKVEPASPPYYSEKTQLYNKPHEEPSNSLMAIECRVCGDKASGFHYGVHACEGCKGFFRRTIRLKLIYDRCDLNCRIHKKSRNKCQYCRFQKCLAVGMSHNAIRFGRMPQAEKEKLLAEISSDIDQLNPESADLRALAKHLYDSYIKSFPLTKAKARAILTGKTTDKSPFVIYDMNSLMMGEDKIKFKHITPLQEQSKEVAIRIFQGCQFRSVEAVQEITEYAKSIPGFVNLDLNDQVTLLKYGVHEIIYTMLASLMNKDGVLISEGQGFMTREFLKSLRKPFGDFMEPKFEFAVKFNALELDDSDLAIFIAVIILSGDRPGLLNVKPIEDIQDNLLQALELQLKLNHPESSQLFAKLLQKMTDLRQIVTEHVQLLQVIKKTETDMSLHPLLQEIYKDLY

Columns and labels:
[1] = biological target: Retinoic acid receptor RXR-alpha (Homo sapiens) (UniProt P19793); test: OT_NURR1_NURR1RXRa_0480: Odyssey Thera (OT) 8-hour HEK293T Protein Complementation Assay for Nurr1/retinoid X receptor (RXR) (AID 2283385)
Summary of the method: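 Read-out: fluorescence from protein-fragment complementation between Nurr1 and RXRα in human HEK293T cells, 8 h after dosing. DMSO served as negative control; increased signal counted as activity.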

[2] = biological target: Retinoic acid receptor RXR-alpha (Homo sapiens) (UniProt P19793); test: OT_NURR1_NURR1RXRa_1440: Odyssey Thera (OT) 24-hour HEK293T Protein Complementation Assay for Nurr1/retinoid X receptor (RXR) (AID 2283386)
Summary of the method: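 Fluorescence PCA read-out; HEK293T; 24 h post-dose; bait/prey fused to reporter fragments; gain-of-signal fit vs DMSO negative control.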

[3] = TOX21_p53_BLA_p2_viability: Viability Assessment in the Tox21 HCT-116 p53 Agonism Beta-lactamase Assay, Phase 2 (AID 2283591);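 further: compound exposure lasted 16 h at 37 °C; actives lower the ATP signal meaning cytotoxicity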
Summary of the method: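 Cytotoxicity readout: CellTiter-Glo ATP luminescence, 30 min at room temperature, after the beta-lactamase read. Cells were HCT116 exposed 16 h at 37C to compounds pin-transferred at 217-fold dilution from DMSO stocks.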

[4] = TOX21_p53_BLA_p4_viability: Viability Assessment in the Tox21 HCT-116 p53 Agonism Beta-lactamase Assay, Phase 4 (AID 2283597);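 further: hits lower the luminescence signal meaning cytotoxicity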
Summary of the method: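 Cytotoxicity was inferred from loss of CellTiter-Glo luminescence. HCT116 cells had been dosed with compounds after 5 h plating, incubated 16 h at 37C and 5% CO2, and exposed to the CCF4-AM substrate for 2 h.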

[5] = TOX21_p53_BLA_p5_viability: Viability Assessment in the Tox21 HCT-116 p53 Agonism Beta-lactamase Assay, Phase 5 (AID 2283600)
Summary of the method: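 Luciferase-coupled ATP quantitation of cells treated for 16 h (37C, 5% CO2) with test chemicals delivered in DMSO via a 217-fold dilution; 4000 cells/well; reagent incubated 30 min at room temperature before luminescence reading.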

[6] = biological target: Cellular tumor antigen p53 (Homo sapiens) (UniProt P04637); test: TOX21_p53_BLA_p5_ratio: Tox21 HCT-116 p53 Agonism Beta-lactamase Assay, Ratio, Phase 5 (AID 2283599)
Summary of the method: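 Beta-lactamase reporter ratio (blue 460 nm over green 530 nm, 405 nm excitation) after 2 h CCF4-AM loading, in HCT-116 cells exposed 16 h at 37 C to compounds pinned at 217-fold dilution. Increases relative to DMSO baseline scored.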

[7] = biological target: Cellular tumor antigen p53 (Homo sapiens) (UniProt P04637); test: TOX21_p53_BLA_p4_ratio: Tox21 HCT-116 p53 Agonism Beta-lactamase Assay, Ratio, Phase 4 (AID 2283601)
Summary of the method: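 Signal is the blue/green (460nm/530nm) ratio of cleaved versus uncleaved CCF4-AM substrate, read after 2 h substrate loading. Cells were HCT116 carrying the p53-responsive beta-lactamase reporter, dosed 16 h at 37C, 5% CO2; CellTiter-Glo measured in parallel.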

[8] = biological target: Cellular tumor antigen p53 (Homo sapiens) (UniProt P04637); test: TOX21_p53_BLA_p2_ratio: Tox21 HCT-116 p53 Agonism Beta-lactamase Assay, Ratio, Phase 2 (AID 2283592)
Summary of the method: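 Ratio endpoint: beta-lactamase cleavage of CCF4-AM, blue (460 nm) over green (530 nm). HCT116 reporter line; 16 h treatment, 37C; substrate 2 h RT.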

[9] = biological target: Cellular tumor antigen p53 (Homo sapiens) (UniProt P04637); test: TOX21_p53_BLA_p3_ratio: Tox21 HCT-116 p53 Agonism Beta-lactamase Assay, Ratio, Phase 3 (AID 2283596)
Summary of the method: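 Cells were seeded at 4000/well, rested 5 h at 37C, then dosed with DMSO compound solutions (217-fold dilution) for 16 h. CCF4-AM substrate was loaded for 2 h at room temperature, and the 460/530 nm emission ratio was fitted for gain of signal versus DMSO.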

[10] = TOX21_p53_BLA_p3_viability: Viability Assessment in the Tox21 HCT-116 p53 Agonism Beta-lactamase Assay, Phase 3 (AID 2283593);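 further: cells exposed to compound for 16 h before reading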
Summary of the method: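 Cellular ATP was quantified by CellTiter-Glo luminescence, read after 30 min at room temperature. Beforehand, HCT116 cells (4000/well) received compound 5 h post-seeding, 217-fold diluted from DMSO, then incubated 16 h at 37C.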

[11] = ATG_XTT_Cytotoxicity: Cytotoxicity Assessment in the Attagene TRANS-FACTORIAL HepG2 Assay (AID 2283584);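 on AC50: cells exposed to compound for 24 h before reading; active means loss of viability signal versus DMSO baseline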
Summary of the method: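 HepG2 human liver cells, transiently transfected with multiple GAL4-UAS reporter units, were dosed and read at 24 h by XTT as cell number. Loss of signal was fitted relative to DMSO negative control baseline.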

[12] = biological target: Peroxisome proliferator-activated receptor gamma (Homo sapiens) (UniProt P37231); test: OT_PPARg_PPARgSRC1_1440: Odyssey Thera (OT) 24-hour Protein-Complementation Assay for Peroxisome Proliferator-activated Receptor Gamma/ SRC-1 Co-activator (AID 2283388)
Summary of the method: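 HEK293T cells transiently transfected with PPARg and SRC-1 fused via (Gly4Ser)2 linker to split Venus YFP fragments (IFP1/IFP2) were dosed 24 h; fixed, Draq5-stained, imaged at 488/635 nm; nuclear/cytoplasmic fluorescence ratio scored versus DMSO baseline, gain-of-signal.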

[13] = Tanguay_ZF_120hpf_YSE_legacy: (Legacy) Oregon State University Tanguay Lab 120 Hour Post-fertilization zebrafish Assay for Yolk Sac Edema (AID 2283634);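 further: actives raise the incidence of yolk sac edema above the DMSO baseline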
Summary of the method: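 Tropical 5D wild-type embryos, dechorionated with pronase at 4 hpf, were exposed singly from 6 hpf to 120 hpf under static, sealed, dark conditions at 28C with 0.64% DMSO final. Yolk sac edema was scored present/absent by brightfield microscopy.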

[14] = Tanguay_ZF_120hpf_AXIS_legacy: (Legacy) Oregon State University Tanguay Lab 120 Hour Post-fertilization zebrafish Assay for Body Axis Malformation (AID 2283635);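 further: potency for an increased fraction of larvae scored with body axis malformation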
Summary of the method: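 Tropical 5D wild-type zebrafish embryos, dechorionated with pronase at 4 hpf, were placed singly in wells at 6 hpf and exposed statically to test chemical (0.64% DMSO final) at 28C until 120 hpf, then scored by brightfield for body axis defects.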

Measured: AC50

CCCCCCCCO[C@@H]1O[C@H](CO)[C@@H](O)[C@H](O)[C@H]1O
inconclusive: [1] 11.2 µM | [2] 50 µM | [3] 46.1 µM | [4] 46.1 µM | [5] 46.1 µM

O=S(=O)(O)c1ccccc1C=Cc1ccc(-c2ccc(C=Cc3ccccc3S(=O)(=O)O)cc2)cc1
active: [2] 66.8 µM | [6] 11.4 µM | [7] 11.4 µM
inactive: [1] | [3]

Cc1ccc(S)cc1
inactive: [8] | [9] | [5]
inconclusive: [4] 0.00173 µM | [7] 46.1 µM
active: [1] 79.4 µM | [2] 79.8 µM

CCCCC(CC)COC(=O)CCCCC(=O)OCc1ccccc1 (stereo not given)
inactive: [9]
inconclusive: [1] 27.6 µM | [2] 8.02 µM | [10] 46.1 µM | [4] 46.1 µM | [6] 46.1 µM

Cc1ccc(N/N=c2\c(=O)cc/c(=N/Nc3ccc(S(=O)(=O)O)cc3)c2=O)c(C)c1
inconclusive: [1] 9.92 µM | [2] 50 µM | [8] 46.1 µM | [9] 46.1 µM
inactive: [4]

CCCCCC(=O)O[C@]1(C(C)=O)CC[C@H]2[C@@H]3CCC4=CC(=O)CC[C@]4(C)[C@H]3CC[C@@]21C
inactive: [8] | [4] | [6]
active: [1] 11.9 µM | [2] 26.3 µM

O=c1cc(-c2ccc(O)cc2)oc2cc(O)cc(O)c12
inactive: [11] | [9] | [4] | [6] | [5]
inconclusive: [1] 30.5 µM | [3] 78.2 µM | [10] 83.4 µM and 46.6 µM | [4] 46.3 µM | [5] 46.6 µM
active: [9] 14.6 µM | [7] 13.4 µM

NC(=O)c1nc(-c2cccc(-c3cc(F)ccc3OCC(F)(F)C(F)(F)F)c2)n[nH]1
inconclusive: [1] 88.9 µM and 108 µM | [12] 50 µM
active: [3] 65.9 µM | [8] 79.6 µM | [10] 74 µM | [9] 87.4 µM | [6] 86.6 µM | [5] 72.7 µM | [7] 86.3 µM | [13] 26.8 µM

No new results follow: 2 of the compounds above.
CCCCC(CC)COC(=O)CCCCC(=O)OCc1ccccc1 (stereo not given)
inactive: [9]
inconclusive: [1] 27.6 µM | [2] 8.02 µM | [10] 46.1 µM | [4] 46.1 µM | [6] 46.1 µM

Cc1ccc(N/N=c2\c(=O)cc/c(=N/Nc3ccc(S(=O)(=O)O)cc3)c2=O)c(C)c1
inconclusive: [1] 9.92 µM | [2] 50 µM | [8] 46.1 µM | [9] 46.1 µM
inactive: [4]

Next part.

CCCC(O)C(CC)CO (stereo not given)
inactive: [7]
inconclusive: [1] 50 µM | [11] 100 µM | [3] 46.1 µM | [8] 46 µM | [10] 46 µM | [4] 79.1 µM and 46 µM | [5] 46.1 µM

Oc1cccc(O)c1
inactive: [1] | [11] | [9] | [7]
inconclusive: [8] 23 µM | [10] 0.635 µM | [4] 46.1 µM and 45 µM | [6] 45 µM and 23 µM | [5] 46.1 µM and 23 µM | [7] 45 µM

OCCO
inconclusive: [1] 50.5 µM and 4.45 nM | [10] 49.6 µM | [6] 49.6 µM | [5] 0.00399 µM | [7] 49.6 µM
inactive: [2] | [4] | [5]

CC[C@H](C)C(=O)O[C@H]1C[C@@H](C)C=C2C=C[C@H](C)[C@H](CC[C@@H]3C[C@@H](O)CC(=O)O3)[C@H]21
inconclusive: [1] 74.7 µM | [11] 25.2 µM
active: [3] 44.6 µM | [8] 84.3 µM | [10] 82.5 µM and 35.6 µM | [4] 79.2 µM and 27.4 µM | [6] 97.1 µM and 37.7 µM | [5] 91.2 µM and 33.6 µM | [7] 97.1 µM
inactive: [3] | [4] | [7]

CC(C)CCCCCCOC(=O)CCCCC(=O)OCCCCCCC(C)C
inactive: [1] | [7]
inconclusive: [11] 100 µM | [10] 46.1 µM | [9] 46.1 µM | [6] 46.1 µM | [14] 79.1 µM
